Results on nine targets are retold here after the supplement of paper PMC7666118.

The chains behind the UniProt entries cited, without tags or fusion partners. Where a name states a change or a piece, a line headed by the entry shows the natural chain unless it says otherwise.
UniProt Q8WWM7: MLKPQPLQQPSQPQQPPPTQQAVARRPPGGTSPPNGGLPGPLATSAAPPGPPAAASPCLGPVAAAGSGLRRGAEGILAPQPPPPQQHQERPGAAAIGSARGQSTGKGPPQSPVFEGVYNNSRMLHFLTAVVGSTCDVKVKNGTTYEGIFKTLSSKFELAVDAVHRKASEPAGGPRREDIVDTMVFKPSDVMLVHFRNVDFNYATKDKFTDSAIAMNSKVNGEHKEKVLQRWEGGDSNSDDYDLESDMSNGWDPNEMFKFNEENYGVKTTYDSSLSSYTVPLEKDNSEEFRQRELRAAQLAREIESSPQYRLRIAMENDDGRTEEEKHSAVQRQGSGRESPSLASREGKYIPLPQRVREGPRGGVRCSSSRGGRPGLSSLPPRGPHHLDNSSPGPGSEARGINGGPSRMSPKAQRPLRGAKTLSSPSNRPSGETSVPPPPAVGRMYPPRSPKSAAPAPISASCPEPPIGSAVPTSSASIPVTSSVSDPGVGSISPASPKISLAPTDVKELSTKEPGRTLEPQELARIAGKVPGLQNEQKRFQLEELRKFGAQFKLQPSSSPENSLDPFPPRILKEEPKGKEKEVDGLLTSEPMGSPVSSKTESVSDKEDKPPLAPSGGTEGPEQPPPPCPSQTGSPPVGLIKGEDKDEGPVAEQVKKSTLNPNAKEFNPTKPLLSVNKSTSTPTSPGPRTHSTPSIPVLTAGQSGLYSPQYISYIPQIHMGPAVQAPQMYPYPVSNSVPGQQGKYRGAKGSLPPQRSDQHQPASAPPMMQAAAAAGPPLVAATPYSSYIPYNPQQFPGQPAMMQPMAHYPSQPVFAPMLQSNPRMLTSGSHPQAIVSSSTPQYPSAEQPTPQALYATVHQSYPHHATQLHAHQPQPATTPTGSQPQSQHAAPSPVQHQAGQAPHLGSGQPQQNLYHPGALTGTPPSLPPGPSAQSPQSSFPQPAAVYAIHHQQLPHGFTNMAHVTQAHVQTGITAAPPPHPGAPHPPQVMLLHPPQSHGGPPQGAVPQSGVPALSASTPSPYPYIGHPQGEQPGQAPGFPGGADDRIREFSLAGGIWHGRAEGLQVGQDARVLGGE
UniProt Q9UBW5: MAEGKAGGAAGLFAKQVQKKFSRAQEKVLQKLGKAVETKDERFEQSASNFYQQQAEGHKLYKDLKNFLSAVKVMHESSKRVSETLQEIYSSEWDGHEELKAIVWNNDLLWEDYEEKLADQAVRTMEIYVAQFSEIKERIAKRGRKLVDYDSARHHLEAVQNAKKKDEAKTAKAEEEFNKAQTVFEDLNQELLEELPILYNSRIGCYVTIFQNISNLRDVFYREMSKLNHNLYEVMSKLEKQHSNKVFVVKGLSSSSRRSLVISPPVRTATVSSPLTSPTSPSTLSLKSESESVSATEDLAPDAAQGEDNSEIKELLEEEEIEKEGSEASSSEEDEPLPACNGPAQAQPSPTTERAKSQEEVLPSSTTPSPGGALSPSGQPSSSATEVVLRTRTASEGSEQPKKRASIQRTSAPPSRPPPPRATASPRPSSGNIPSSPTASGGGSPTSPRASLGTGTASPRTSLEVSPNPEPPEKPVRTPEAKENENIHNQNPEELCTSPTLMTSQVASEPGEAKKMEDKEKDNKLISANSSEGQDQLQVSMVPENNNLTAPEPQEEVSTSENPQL
UniProt Q9H0W9: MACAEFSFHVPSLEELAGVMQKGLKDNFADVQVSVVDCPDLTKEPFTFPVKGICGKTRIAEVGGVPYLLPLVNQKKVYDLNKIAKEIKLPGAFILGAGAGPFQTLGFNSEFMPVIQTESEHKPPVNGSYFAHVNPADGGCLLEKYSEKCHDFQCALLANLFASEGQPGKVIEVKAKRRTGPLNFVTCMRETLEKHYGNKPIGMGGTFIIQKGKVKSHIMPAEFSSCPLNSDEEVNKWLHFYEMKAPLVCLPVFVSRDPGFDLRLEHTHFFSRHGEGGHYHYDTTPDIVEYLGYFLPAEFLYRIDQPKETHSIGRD
UniProt P36405: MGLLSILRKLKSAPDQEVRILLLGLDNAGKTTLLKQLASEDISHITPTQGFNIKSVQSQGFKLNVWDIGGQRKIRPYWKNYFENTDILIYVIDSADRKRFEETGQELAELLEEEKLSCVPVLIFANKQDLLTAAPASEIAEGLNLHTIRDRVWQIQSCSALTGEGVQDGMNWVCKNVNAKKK
UniProt Q9H8G2: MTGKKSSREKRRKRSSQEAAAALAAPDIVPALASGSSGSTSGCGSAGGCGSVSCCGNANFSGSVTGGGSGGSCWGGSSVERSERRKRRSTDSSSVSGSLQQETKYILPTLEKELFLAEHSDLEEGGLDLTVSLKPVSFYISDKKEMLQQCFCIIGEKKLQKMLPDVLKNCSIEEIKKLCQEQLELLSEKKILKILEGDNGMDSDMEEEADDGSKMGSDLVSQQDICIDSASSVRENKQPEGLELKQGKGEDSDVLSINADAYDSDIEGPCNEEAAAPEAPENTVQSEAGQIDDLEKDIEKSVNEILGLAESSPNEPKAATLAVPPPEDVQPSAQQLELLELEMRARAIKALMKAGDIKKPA
UniProt Q9BUT1: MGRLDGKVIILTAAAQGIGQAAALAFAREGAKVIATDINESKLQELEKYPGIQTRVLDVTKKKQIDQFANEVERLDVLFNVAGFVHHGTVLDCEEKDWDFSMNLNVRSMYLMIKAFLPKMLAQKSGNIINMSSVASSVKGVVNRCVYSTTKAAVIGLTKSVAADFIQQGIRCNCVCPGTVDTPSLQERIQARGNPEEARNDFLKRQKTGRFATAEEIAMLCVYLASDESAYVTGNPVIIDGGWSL
UniProt Q9Y376: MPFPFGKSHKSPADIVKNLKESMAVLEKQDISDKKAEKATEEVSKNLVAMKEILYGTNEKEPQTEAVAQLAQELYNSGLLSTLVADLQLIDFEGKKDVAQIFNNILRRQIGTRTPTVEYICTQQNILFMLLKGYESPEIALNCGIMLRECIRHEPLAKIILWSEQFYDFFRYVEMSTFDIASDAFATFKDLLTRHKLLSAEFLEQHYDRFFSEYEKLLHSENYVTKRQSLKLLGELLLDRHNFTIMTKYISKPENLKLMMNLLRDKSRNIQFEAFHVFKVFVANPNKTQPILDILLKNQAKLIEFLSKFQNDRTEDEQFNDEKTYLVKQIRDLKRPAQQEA
UniProt Q14457, whole entry: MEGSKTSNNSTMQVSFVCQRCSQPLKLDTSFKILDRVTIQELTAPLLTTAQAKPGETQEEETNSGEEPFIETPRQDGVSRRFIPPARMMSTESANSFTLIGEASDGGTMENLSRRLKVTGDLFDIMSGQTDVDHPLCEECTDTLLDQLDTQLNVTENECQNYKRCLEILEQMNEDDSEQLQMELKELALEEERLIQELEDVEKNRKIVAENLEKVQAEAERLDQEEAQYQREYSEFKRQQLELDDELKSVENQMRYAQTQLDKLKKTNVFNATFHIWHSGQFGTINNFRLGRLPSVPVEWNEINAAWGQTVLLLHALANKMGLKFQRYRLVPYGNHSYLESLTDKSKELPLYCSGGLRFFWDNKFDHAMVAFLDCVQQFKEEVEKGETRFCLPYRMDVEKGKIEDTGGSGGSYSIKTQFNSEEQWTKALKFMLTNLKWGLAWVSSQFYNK
UniProt P15848: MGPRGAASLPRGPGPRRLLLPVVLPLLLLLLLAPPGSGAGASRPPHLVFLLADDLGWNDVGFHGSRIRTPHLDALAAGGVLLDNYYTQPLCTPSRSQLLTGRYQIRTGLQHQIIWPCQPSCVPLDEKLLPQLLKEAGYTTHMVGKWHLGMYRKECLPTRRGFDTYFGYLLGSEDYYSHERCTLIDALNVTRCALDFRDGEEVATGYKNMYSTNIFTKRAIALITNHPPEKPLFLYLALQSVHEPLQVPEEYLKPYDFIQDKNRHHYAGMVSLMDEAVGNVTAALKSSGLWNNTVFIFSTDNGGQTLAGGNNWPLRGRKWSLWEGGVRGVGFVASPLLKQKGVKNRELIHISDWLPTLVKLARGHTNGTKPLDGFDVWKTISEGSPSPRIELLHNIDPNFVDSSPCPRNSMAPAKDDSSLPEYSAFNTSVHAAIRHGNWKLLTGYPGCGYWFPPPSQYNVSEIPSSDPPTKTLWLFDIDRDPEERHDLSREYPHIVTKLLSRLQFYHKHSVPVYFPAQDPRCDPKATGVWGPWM

Compound in the experiment: Nc1nc2c(ncn2[C@@H]2O[C@H](COP(=O)(O)OP(=O)(O)OP(=O)(O)O)[C@@H](O)[C@H]2O)c(=O)[nH]1
Put plainly: dose-dependent thermal stabilisation call (2D-TPP, DLPTP, 10% FDR) (binary (1 = stabilised)); higher = stabilised by the compound. As to conditions: system: Jurkat gel-filtered lysate; concentration range 1-500 µM.

The other results are listed elsewhere or left out.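 Rule for the calls: active = dose-dependent thermal stabilisation significant by F-test of dose-response against flat model at 10% FDR; inactive = not significant.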

As for ATXN2L (UniProt Q8WWM7), the “dose-dependent thermal stabilisation call” value is inactive: 0. In the case of BIN2 (UniProt Q9UBW5), the “dose-dependent thermal stabilisation call” value is inactive: 0. On to C11orf54 (UniProt Q9H0W9), for which the “dose-dependent thermal stabilisation call” value is inactive: 0. As to ARL3 (UniProt P36405), the “dose-dependent thermal stabilisation call” value was active: 1. As for CAAP1 (UniProt Q9H8G2), the “dose-dependent thermal stabilisation call” value is inactive: 0. With BDH2 (UniProt Q9BUT1), the “dose-dependent thermal stabilisation call” value was inactive: 0.

With CAB39 (UniProt Q9Y376), the “dose-dependent thermal stabilisation call” value is inactive: 0.

For BECN1 (UniProt Q14457), the “dose-dependent thermal stabilisation call” value was inactive: 0.

With ARSB (UniProt P15848), the “dose-dependent thermal stabilisation call” value is inactive: 0.
